This assay concerns the target YbeY from Staphylococcus aureus (SaYbeY), full length with C-terminal hexahistidine tag (Staphylococcus aureus Mu50) (UniProt P67136). Description: SEC-MALS; Superdex-200 10/300 GL; YbeY loaded at 1 mg/ml; 20 mM Tris-HCl (pH 8.0), 150 mM NaCl, 2 mM ZnCl2; 18-angle MALS detector; both purified. A general note: Size exclusion chromatography separates by hydrodynamic size, large species first.

No constants are given. Whether binding was seen depends on the method and setting. Sequences can lack the tags named with a protein.

B1: YbeY from Staphylococcus aureus (SaYbeY), full length with C-terminal hexahistidine tag (enzyme, UniProt P67136 1-155)
chain: MFTIDFSDHTGLVKDAWYKQIEDLLEFAKKEEHIEDDAELSVTFVDKQEIQEINRTYRDKDKVTDVISFALEEDEPEIDFSGLDIPRVLGDIIICTDVAQEQANNYGHSFERELGFLALHGFLHLLGYDHMTEADEKEMFGRQDTILNAYGLTRD
As for B1, the binding entry is reported as “no binding (tested: 1 mg/ml)”.

The values are drawn from paper PMC9895993.
